This assay can be described thus: qHTS Assay for Modulators of Lamin A Splicing. The following applies: HeLa LMNA splicing GFP/RFP minigene ratio, 48 h. The text has this: NCGC Assay Overview: Hutchinson-Gilford Progeria Syndrome (HGPS) is a pediatric premature aging disease caused by a spontaneous mutation in the lamin A/C (LMNA) gene. The mutation activates a cryptic splice site in the LMNA pre-mRNA which results in production of a pre-lamin A protein that cannot be processed properly. The mutant protein accumulates in the nucleus and negatively affects numerous cellular functions. Correction of the splicing defect in HGPS patient cells using a targeted oligonucleotide (exo11) leads to reversal of the cellular disease phenotypes. To identify small molecule modulators of aberrant LMNA splicing, a homogenous assay was constructed in HeLa cells that used a GFP containing minigene to report on correction of aberrant splicing in lamin A and a RFP (DsRed2) to report on cell viability, uniformity and nonspecific effects on the assay signal. This assay was adapted to laser-scanning microplate cytometry (Acumen, TTP Labtech) where miniaturization of the assay to a 1,536-well plate format was possible. References: Bowen, W. P.; Wylie, P. G. Application of Laser-Scanning Fluorescence Microplate Cytometry in High Content Screening. Assay Drug Dev Technol 2006;4:209-221. Scaffidi P, Misteli T. Reversal of the cellular phenotype in the premature aging disease Hutchinson-Gilford progeria syndrome. Nat.
NCGC Assay Protocol Summary: Reagents/Controls: Stable clones expressing DsRed2 and lamin A-EGFP were generated by Cell and Molecular Technologies in S3 HeLa cells. HeLa cells were prepared for the assay when they were 70-90% confluent. The cells were counted and resuspended in Opti-MEM I (no phenol red; Gibco), 2% FBS, 1% penicillin/ streptomycin (Gibco) at concentration of 120 cells/uL concentration. The suspension was passed through a Falcon basket filter with pore size 40um (Beckton Dickson). Control titrations: column […] 1536-well plate contained a sixteen point titration (1:2 dilutions) in duplicate of ancitabine (Sigma: A8598) beginning at 40 uM final concentration. Column 2 contained a sixteen point titration (1:2 dilutions) of cycloheximide beginning at 1.4 mM final concentration. Column 3 contained ancitabine at 40 uM and column 4 contained was the vehicle control (0.5% DMSO final concentration). Assay Steps: 5 uL of HeLa cells were plated in Aurora LoBase black clear bottom (cyclic-olefin polymer) 1536-well plates at a final density of 600 cells/well. Controls and library compounds were added with a 1536-well pin array using the Kalypsys pin-tool. The plates were then incubated for 48 hrs in a cell-culture incubator (37 °C; 5% CO2, 98% humidity). Following incubation the plates were read on the Acumen Explorer using the 488 nm laser. Data was collected on objects between 10 and 100 um in size. Cell objects were defined by a 15 um width x 10 um depth filter. The ratio of the total object intensity in PMT1 (500-530 nm emission; GFP) over PMT3 (575-640 nm emission; RFP) was calculated for analysis. Keywords: NIH Roadmap, MLSCN, MLI, MLSMR, qHTS, NCGC, lamin A, Progeria, RNA splicing.
For orientation: In qHTS, concentration-response curves come from the screen itself.

[1] abbreviates: measured here: GFP splicing reporter channel.
[2] abbreviates: measured here: RFP viability control channel.

This passage reports AC50 results from PubChem BioAssay AID1487 (National Center for Advancing Translational Sciences (NCATS), 2009).

This is one part of the list. These are further read-outs of the screen, such as a control signal, another cell line or another target. No call is given for them. The list favours compounds with an active or inconclusive main result. The note in brackets gives the kind of curve behind each potency; many fits are weak.

Consider `COc1ccc(-c2cc(C(=O)N3CCN(c4ccccc4OC)CC3)no2)cc1OC`, for which the AC50 (as a rule, the concentration at which the activity in the assay is half-maximal) was 0.1 µM [falling, partial curve] under setting [1] and 12.6 µM [falling, partial curve, poor fit] under setting [2].
For the molecule `CCN(CC)Cc1c(O)ccc2c([N+](=O)[O-])c(C)n(-c3ccc(OC)cc3)c12`, the AC50 under setting [2] was 20 µM [rising, partial curve, poor fit].
In the case of `COc1ccc(C2(C(=O)Nc3ccc(OC)cc3OC)CCCC2)cc1`, the AC50 under setting [1] is 2.24 µM [falling, partial curve].
On to `Cc1ccccc1OCC(=O)Nc1ccc(N2CCN(C(=O)C(C)C)CC2)c(Cl)c1`, for which the AC50 under setting [2] was 35.5 µM [falling, single point].
Consider `CCSC1(SCC)N=C(N)C2(C#N)C(c3ccc(OC)c(OC)c3OC)C12C#N` (stereo not drawn), for which the AC50 under setting [2] is 20 µM [rising, single point].
Take `COCc1cc(N2CCN(c3ccccc3F)CC2)nc(-c2ccccc2)n1`: under setting [2], the AC50 is 35.5 µM [rising, single point].
In the case of `S=C(NCc1ccc(Cl)cc1)NC1CCCCC1`, the AC50 under setting [2] is 15.8 µM [rising, single point].
As for `COc1ccc(Oc2ncc3nc(CCc4ccccc4)c(=O)n(C[C@H]4CCCO4)c3n2)cc1`, the AC50 under setting [1] was 11.2 µM [falling, partial curve].
In the case of `CN(C)C=Nc1ncc2c3ccccc3n(Cc3ccccc3)c2c1C#N`, the AC50 under setting [1] is 1 µM [falling, single point] and the AC50 under setting [2] was 1.12 µM [falling, single point].
As to `Cc1cc(C(=O)N/N=C/c2cc(Br)ccc2OC(=O)c2ccccc2Cl)n[nH]1`, the AC50 under setting [1] was 15.8 µM [falling, partial curve, poor fit] and the AC50 under setting [2] was 5.01 µM [falling, partial curve].
For `O=[N+]([O-])c1ccc(Cl)c(S(=O)(=O)/N=C(/c2ccccc2)N2CCOCC2)c1`, the AC50 under setting [1] is 8.91 µM [falling, partial curve] and the concentration at half-maximal activity (AC50) under setting [2] was 6.31 µM [falling, partial curve].
On to `CCCCn1cc(S(=O)(=O)c2cccc(C)c2)c(=O)c2cc(F)c(N3CCOCC3)cc21`, for which the AC50 under setting [2] was 35.5 µM [rising, single point].
With `COc1ccc(Cc2nnc(Nc3ccc4c(c3)OCCO4)[nH]c2=O)cc1`, the AC50 under setting [1] is 0.794 µM [rising, full curve, poor fit].
Take `CCOC(=O)N/N=C/c1cc(OC)c(O)c(OC)c1`: the concentration at half-maximal activity (AC50) by setting is: under setting [1], 0.141 µM [rising, full curve, poor fit]; under setting [2], 0.126 µM [rising, full curve].
For the molecule `CCc1ccc(Nc2cnn(-c3nc4ccccc4s3)c(=O)c2Cl)cc1`, the AC50 under setting [2] was 25.1 µM [rising, single point].
Take `Cc1ccc(NC(=O)CCn2nnc3ccccc32)cc1`: the AC50 under setting [2] is 25.1 µM [falling, partial curve, poor fit].
Consider `c1ccc(CNc2nc(-c3cccnc3)nc3ccccc23)cc1`, for which the AC50 under setting [1] was 12.6 µM [falling, partial curve, poor fit] and the AC50 under setting [2] was 17.8 µM [falling, partial curve].
Turning to `COc1cccc2c1CCC(NC(C)=O)C2=O` (stereo not drawn), under setting [2], the AC50 was 11.2 µM [rising, partial curve, poor fit].
Regarding `CCC(C)(C)n1nnnc1C(c1cccc(C#N)c1)N1CCN(c2cccc(C)c2C)CC1` (stereo not drawn), the AC50 under setting [1] is 12.6 µM [rising, single point].
In the case of `CC1CCCCC1NC(=O)CN1C(=O)CSc2cc(S(=O)(=O)N3CCCCCC3)ccc21` (stereo not drawn), the AC50 is, setting by setting: under setting [1], 5.62 µM [rising, partial curve]; under setting [2], 7.94 µM [rising, partial curve].
On to `CCOc1ccccc1CNC(=O)c1cc2c(=O)n(Cc3ccco3)ccc2nc1C`, for which the AC50 was 0.00316 µM [rising, full curve] under setting [1] and 8.91 µM [rising, partial curve, poor fit] under setting [2].
With `Nc1ccc(-c2nc3c(Cl)cc(N)cc3[nH]2)cc1`, the concentration at half-maximal activity (AC50) under setting [2] was 35.5 µM [rising, single point].
Take `Cc1cc(N=Cc2c(O)n(-c3ccc(C)c(C)c3)c(=O)c3ccccc23)no1`: the AC50 under setting [2] was 3.16 µM [rising, full curve].
Take `COc1ccccc1NS(=O)(=O)c1cc(NC(=O)Cn2cnc3c2c(=O)n(C)c(=O)n3C)ccc1C`: the AC50 was 2 µM [rising, partial curve, poor fit] under setting [1] and 12.6 µM [rising, partial curve, poor fit] under setting [2].
As to `Cc1cc(C)c(C(=O)/C=C/c2cccc3ccccc23)c(=O)[nH]1`, the AC50 reads like this: under setting [1], 2.82 µM [falling, partial curve]; under setting [2], 3.16 µM [falling, single point].
With `CC(C)(C)c1cc(C(=O)N2CCN(c3ncccn3)CC2)ccn1`, the AC50 is 12.6 µM [rising, single point] under setting [1] and 31.6 µM [rising, single point] under setting [2].
As to `Cc1ccc(OCC(=O)Nc2nnc(SCc3cc(=O)n4cccc(C)c4n3)s2)cc1`, the concentration at half-maximal activity (AC50) was 0.501 µM [rising, single point] under setting [1] and 0.631 µM [rising, single point] under setting [2].
With `COc1cccc(N2CCN(Cc3nnnn3C3CCCCC3)CC2)c1`, the AC50 under setting [1] is 0.0224 µM [falling, full curve, poor fit].
For the molecule `Cc1cc(C(=O)CSc2nnc(-c3cccs3)o2)c(C)n1-c1ccccc1`, the AC50 under setting [2] is 11.2 µM [rising, partial curve, poor fit].
Consider `COc1ccc(NC(=O)Cn2nnc(-c3ccc(CN4CCOCC4)cc3)n2)c(OC)c1`, for which, under setting [1], the AC50 is 11.2 µM [rising, partial curve].
In the case of `O=C(O)c1cc(S(=O)(=O)Nc2ccc(N3CCCCC3)cc2)ccc1Cl`, the AC50 is 0.355 µM [rising, full curve, poor fit] under setting [1] and 0.447 µM [rising, partial curve, poor fit] under setting [2].
As to `O=c1c(Cc2ccc(F)cc2)c(O)ccn1Cc1ccc(Cl)cc1Cl`, the AC50 under setting [1] was 22.4 µM [rising, single point].
Take `Cc1[nH]c2ccccc2c1CCN(Cc1cccnc1)C(=S)Nc1cccc(F)c1`: the AC50 under setting [1] was 0.0282 µM [falling, single point].
Turning to `C=CCNC(=S)N/N=C/c1cccc([N+](=O)[O-])c1`, under setting [2], the AC50 is 3.16 µM [falling, partial curve].
On to `C=Cc1c(C)/c2[n-]/c1=C\c1[n-]c(c(CC)c1C)/C=c1\[n-]c3c(c1C)C(=O)C(C(=O)[O-])C=3c1[n-]c(c(C)c1CCC(=O)[O-])\C=2.[Cu].[Na+].[Na+]` (stereo not drawn), for which, under setting [2], the concentration at half-maximal activity (AC50) was 0.794 µM [rising, single point].
Same read-out and setting: then `COc1ccccc1S(=O)(=O)Cc1ccc(C(=O)N2CCN(c3ccccc3)CC2)o1`, with 3.98 µM [rising, partial curve, poor fit].
Consider `COc1ccc(N2CCN(C(=O)c3cccnc3)CC2)c([N+](=O)[O-])c1`, for which, under setting [1], the AC50 was 0.447 µM [rising, full curve, poor fit].
With `O=[N+]([O-])/C(=C\Nc1ccccc1Cl)S(=O)(=O)c1ccccc1`, the AC50 is 1.78 µM [falling, partial curve, poor fit] under setting [1] and 2 µM [falling, partial curve, poor fit] under setting [2].
`COc1cc(/C=N/NC(=O)c2[nH]nc3c2CCc2ccccc2-3)ccc1O`: the AC50 under setting [1] was 35.5 µM [rising, single point] and the AC50 under setting [2] was 35.5 µM [rising, single point].
As to `CCN(C(=S)Nc1cc(S(=O)(=O)N2CCOCC2)ccc1Cl)c1cccc2ccccc12`, the AC50 is 4.47 µM [rising, full curve, poor fit] under setting [1] and 5.01 µM [rising, full curve, poor fit] under setting [2].
Turning to `C=CCc1ccc(OCCOCCOc2cccc3cccnc23)c(OC)c1`, the half-maximal activity concentration (AC50) under setting [2] was 12.6 µM [rising, single point].
Consider `C[N+](C)(C)CCC(=O)c1cccc2ccccc12`, for which the AC50 was 2.24 µM [falling, full curve] under setting [1] and 2.51 µM [falling, full curve] under setting [2].
For `CCn1c(C)cc2c(c1=O)C(c1ccccc1)C(C(=O)OC)=C(N)O2` (stereo not drawn), the AC50 under setting [2] was 35.5 µM [rising, single point].
Consider `CCN(CC)c1ccc(S(=O)(=O)N(CC)CC)cc1NC(=O)c1cccnc1`, for which the AC50 under setting [1] was 35.5 µM [falling, partial curve, poor fit].
On to `CC(C)C(C)(C#N)NC(=O)CSc1ncnc2sc(-c3ccccc3)cc12` (stereo not drawn), for which the AC50 under setting [2] was 20 µM [rising, single point].
For the molecule `O=C(Nc1ccccc1Br)c1cc(S(=O)(=O)NC2CCCCC2)ccc1F`, the AC50 is 15.8 µM [falling, partial curve] under setting [1] and 1.41 µM [falling, full curve] under setting [2].
`CCOc1ccccc1NC(=O)C(Sc1ccccc1)c1ccccc1` (stereo not drawn): the AC50 was 7.08 µM [rising, single point] under setting [1] and 15.8 µM [rising, single point] under setting [2].
`C=CCc1cccc2cc(-c3nc4ccc(C(=O)O)cc4[nH]3)c(=O)oc12`: under setting [1], the AC50 was 0.794 µM [rising, partial curve].
Take `COc1ccc2cc(CN(C(=O)Nc3ccccc3OC)C3CCCC3)c(=O)[nH]c2c1`: under setting [2], the AC50 was 25.1 µM [rising, single point].
On to `COc1ccc(C)cc1Nc1cc(C)nc2nc(C)nn12`, for which, under setting [2], the AC50 is 1.26 µM [rising, partial curve].
The same measure, in the same setting: for `Cc1ccc(C(C(=O)NC2CCCC2)N(C(=O)Cc2cccs2)c2ccc(C)c(C)c2)o1` (stereo not drawn) the value was 31.6 µM [rising, single point].
With `Cc1c(C(=O)Nc2nc3ccccc3[nH]2)oc2ccccc12`, the AC50 under setting [2] is 11.2 µM [rising, single point].
Consider `Brc1ccc(Nc2c3c(nc4ncnn24)CCC3)cc1`, for which the AC50 under setting [2] was 12.6 µM [rising, partial curve, poor fit].
Consider `COc1ccc(-c2nc(CN3CCCCC3c3nccn3C)c(C)o2)c(C)c1C` (stereo not drawn), for which, under setting [2], the AC50 is 8.91 µM [rising, single point].
